Data taken from the supplement of paper PMC4604168 (melanoma cell lines).
Some of the results follow. Repeats are few or missing, and single values can be far off.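 The apoptosis fraction was the count of cleaved-PARP antibody-stained nuclei relative to all DNA-stained nuclei, imaged in 1,536-well plates. Screening doses were set so most cells survived, and baseline and induced cleaved-PARP levels vary greatly across cell lines.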

Tests used:
Assay in all cases: cleaved PARP positive nuclei fraction relative to DMSO control; melanoma cells; higher = more apoptosis
Settings in all cases: library dose: low library concentration; 72 h
501Mel = tested on: 501Mel
A101D = tested on: A101D
A2058 = tested on: A2058
C32 = tested on: C32
CBRC008 = tested on: CBRC008 (line from a melanoma biopsy)
CBRC014 = tested on: CBRC014 (line from a melanoma biopsy)
CBRC016 = tested on: CBRC016 (line from a melanoma biopsy)
CBRC017 = tested on: CBRC017 (line from a melanoma biopsy)
COLO792 = tested on: COLO792
COLO800 = tested on: COLO800
COLO829 = tested on: COLO829
G361 = tested on: G361
IPC-298 = tested on: IPC-298
IST-MEL1 = tested on: IST-MEL1
LB2518-MEL = tested on: LB2518-MEL
LOXIMVI = tested on: LOXIMVI

Compound | cleaved PARP positive nuclei fraction (501Mel) | cleaved PARP positive nuclei fraction (A101D) | cleaved PARP positive nuclei fraction (A2058) | cleaved PARP positive nuclei fraction (C32) | cleaved PARP positive nuclei fraction (CBRC008) | cleaved PARP positive nuclei fraction (CBRC014) | cleaved PARP positive nuclei fraction (CBRC016) | cleaved PARP positive nuclei fraction (CBRC017) | cleaved PARP positive nuclei fraction (COLO792) | cleaved PARP positive nuclei fraction (COLO800) | cleaved PARP positive nuclei fraction (COLO829) | cleaved PARP positive nuclei fraction (G361) | cleaved PARP positive nuclei fraction (IPC-298) | cleaved PARP positive nuclei fraction (IST-MEL1) | cleaved PARP positive nuclei fraction (LB2518-MEL) | cleaved PARP positive nuclei fraction (LOXIMVI)
Cc1cc(Nc2cc(N3CCN(C)CC3)nc(/C=C/c3ccccc3)n2)n[nH]1 + c1cc(-c2cnn3cc(-c4ccc(OCCN5CCCCC5)cc4)cnc23)ccn1 [Dorsomorphin] (first compound 0.04 µM, partner dose 0.4 µM) | 85.4% | 22.7% | 70.9% | 94.3% | 148% | 94% | 71.4% | 51.7% | 161% | 44.9% | 65.2% | 103% | 218% | 69.8% | 70% | 98.9%
Nc1nc(F)nc2c1ncn2[C@@H]1O[C@H](CO)[C@@H](O)[C@@H]1O [fludarabine] + c1cc(-c2cnn3cc(-c4ccc(OCCN5CCCCC5)cc4)cnc23)ccn1 [Dorsomorphin] (first compound 0.2 µM, partner dose 0.4 µM) | 2790% | 20.9% | 91.3% | 101% | 65.4% | 193% | 16.7% | 78.2% | 225% | 111% | 72.8% | 145% | 99% | 197% | 50.1% | 135%
CNC(=O)c1cc(Oc2ccc(NC(=O)Nc3ccc(Cl)c(C(F)(F)F)c3)cc2)ccn1 [sorafenib] + Cn1cc(/C=C2\C(=O)Nc3cccnc32)c2ccccc21 [GW441756] (first compound 0.4 µM, partner dose 0.4 µM) | 147% | 13.5% | 56.2% | 83.5% | 95.9% | 95% | 76.8% | 91.8% | 98.9% | 35.9% | 50.7% | 74.8% | 64.2% | 44.7% | 42.1% | 29.7%
O=C(O)c1ccc2c(c1)nc(Nc1cccc(Cl)c1)c1ccncc12 + CCN(CC)CCCCNc1ncc2cc(-c3cc(OC)cc(OC)c3)c(NC(=O)NC(C)(C)C)nc2n1 [PD173074] (first compound 0.4 µM, partner dose 0.1 µM) | 64% | 8.87% | 107% | 89.3% | 106% | 115% | 121% | 205% | 162% | 194% | 101% | 184% | 75.7% | 104% | 57.8% | 462%
CN1CCN(c2ccc3nc(-c4c(N)c5c(F)cccc5[nH]c4=O)[nH]c3c2)CC1 [Dovitinib] + COc1ccc2c(c1)CCC1C2CCC2(C)C(NCCCCCCN3C(=O)C=CC3=O)CCC12 [U73122] (first compound 0.1 µM, partner dose 0.4 µM) | 61.1% | 26.2% | 402% | 86.5% | 66.7% | 108% | 105% | 231% | 116% | 92% | 116% | 90.4% | 28.4% | 170% | 27.5% | 141%
Cc1cc(Nc2cc(N3CCN(C)CC3)nc(/C=C/c3ccccc3)n2)n[nH]1 + COc1ccc(-c2ccc3c(N4CCOCC4)nc(N4C[C@@H](C)O[C@@H](C)C4)nc3n2)cc1CO [KU0063794] (first compound 0.04 µM, partner dose 0.02 µM) | 33.6% | 48% | 108% | 91.7% | 190% | 139% | 59.5% | 80.4% | 97.1% | 24.1% | 139% | 114% | 205% | 104% | 46.9% | 40.3%
CN1CCN(c2ccc3nc(-c4c(N)c5c(F)cccc5[nH]c4=O)[nH]c3c2)CC1 [Dovitinib] + c1cc(-c2cnn3cc(-c4ccc(OCCN5CCCCC5)cc4)cnc23)ccn1 [Dorsomorphin] (first compound 0.1 µM, partner dose 0.4 µM) | 71.9% | 50.2% | 183% | 64.6% | 226% | 91.4% | 67.4% | 140% | 24.1% | 157% | 209% | 64% | 96% | 107% | 169% | 85.8%
CN1CCN(c2ccc3nc(-c4c(N)c5c(F)cccc5[nH]c4=O)[nH]c3c2)CC1 [Dovitinib] + Cc1cc([N+](=O)[O-])ccc1NS(=O)(=O)c1cc(Cl)ccc1Cl [FH535] (first compound 0.1 µM, partner dose 1 µM) | 74.6% | 21.3% | 102% | 83.3% | 607% | 167% | 1670% | 326% | 127% | 69.4% | 19.8% | 156% | 99.7% | 109% | 82.4% | 188%
C[C@@H](Oc1cc(-c2cnn(C3CCNCC3)c2)cnc1N)c1c(Cl)ccc(F)c1Cl [Crizotinib] + O=C1NC(=O)/C(=C/c2ccc(-c3ccc(F)cc3O)o2)S1 [AS252424] (first compound 0.2 µM, partner dose 1 µM) | 75.6% | 13% | 101% | 187% | 49.8% | 83.6% | 74% | 89% | 105% | 74.3% | 68.6% | 62.4% | 76% | 119% | 72.1% | 111%
Cn1c(=O)n(-c2ccc(C(C)(C)C#N)cc2)c2c3cc(-c4cnc5ccccc5c4)ccc3ncc21 + Cn1cc(/C=C2\C(=O)Nc3cccnc32)c2ccccc21 [GW441756] (first compound 0.004 µM, partner dose 0.4 µM) | 71% | 9.16% | 27.9% | 41.2% | 25.8% | 63% | 35.6% | 57.2% | 120% | 46.6% | 132% | 65.5% | 51% | 74.2% | 64.1% | 129%
CNC(=O)c1cc(Oc2ccc(NC(=O)Nc3ccc(Cl)c(C(F)(F)F)c3)cc2)ccn1 [sorafenib] + COc1ccc(-c2ccc3c(N4CCOCC4)nc(N4C[C@@H](C)O[C@@H](C)C4)nc3n2)cc1CO [KU0063794] (first compound 0.4 µM, partner dose 0.02 µM) | 87.3% | 8.51% | 183% | 93.4% | 60% | 88.5% | 44.5% | 84.8% | 53.9% | 54.5% | 82.3% | 34.5% | 34.4% | 143% | 65% | 81.8%
Nc1nc(F)nc2c1ncn2[C@@H]1O[C@H](CO)[C@@H](O)[C@@H]1O [fludarabine] + Oc1cc(-c2nc(-c3ccccc3)[nH]c2-c2ccncc2)ccc1Cl [L779450] (first compound 0.2 µM, partner dose 0.2 µM) | 486% | 30.3% | 73.1% | 53.6% | 74% | 128% | 113% | 90.1% | 148% | 43.1% | 63.9% | 52.1% | 169% | 93% | 432% | 220%
Cn1c(=O)n(-c2ccc(C(C)(C)C#N)cc2)c2c3cc(-c4cnc5ccccc5c4)ccc3ncc21 + O=C1NC(=O)/C(=C/c2ccc(-c3ccc(F)cc3O)o2)S1 [AS252424] (first compound 0.004 µM, partner dose 1 µM) | 68.9% | 48.3% | 181% | 45% | 197% | 94.2% | 94% | 106% | 50% | 147% | 118% | 125% | 63.4% | 120% | 78.1% | 48%
CCCS(=O)(=O)Nc1ccc(F)c(C(=O)c2c[nH]c3ncc(Cl)cc23)c1F + CCCCCCCCCCCC1=C(O)C(=O)C=C(O)C1=O [Embelin] (first compound 0.08 µM, partner dose 1.2 µM) | 177% | 65.8% | 32.4% | 92.2% | 41.2% | 57.4% | 80.9% | 65.9% | 55% | 92.4% | 39.2% | 120% | 54.3% | 130% | 81% | 396%
CN1CCN(c2ccc3nc(-c4c(N)c5c(F)cccc5[nH]c4=O)[nH]c3c2)CC1 [Dovitinib] + COc1ccc(-c2ccc3c(N4CCOCC4)nc(N4C[C@@H](C)O[C@@H](C)C4)nc3n2)cc1CO [KU0063794] (first compound 0.1 µM, partner dose 0.02 µM) | 60.7% | 23.5% | 148% | 72.6% | 130% | 82.4% | 48.2% | 69.7% | 86.8% | 163% | 93.2% | 40% | 92.6% | 68.2% | 97.7% | 49.4%
Nc1ncn([C@H]2C[C@H](O)[C@@H](CO)O2)c(=O)n1 [decitabine] + O=c1cc(-c2cccc3c2Sc2ccccc2S3)oc(N2CCOCC2)c1 [KU55933] (first compound 0.1 µM, partner dose 1 µM) | 140% | 36.4% | 88.5% | 88.3% | 93.4% | 98.5% | 37.1% | 76.7% | 159% | 55.2% | 75.7% | 78.9% | 265% | 636% | 83% | 206%
CS(=O)(=O)CCNCc1ccc(-c2ccc3ncnc(Nc4ccc(OCc5cccc(F)c5)c(Cl)c4)c3c2)o1 [lapatinib] + CC(C)CCN1c2nc(Nc3cc(F)c(O)c(F)c3)ncc2N(C)C(=O)C1C [BID1870] (first compound 0.8 µM, partner dose 0.2 µM) | 90% | 42.6% | 81% | 35.8% | 140% | 130% | 50.4% | 134% | 149% | 98.8% | 109% | 235% | 150% | 89.1% | 35.2% | 150%
CCCS(=O)(=O)Nc1ccc(F)c(C(=O)c2c[nH]c3ncc(Cl)cc23)c1F + CCc1ccc(CCOc2ccc(CC3SC(=O)NC3=O)cc2)nc1 [pioglitazone] (first compound 0.08 µM, partner dose 2 µM) | 73.6% | 43.5% | 81.8% | 45.8% | 63.7% | 87.8% | 113% | 216% | 85.1% | 55.2% | 73.7% | 108% | 52% | 51.6% | 73.7% | 44.7%
CN1CCN(c2ccc3nc(-c4c(N)c5c(F)cccc5[nH]c4=O)[nH]c3c2)CC1 [Dovitinib] + O=c1cc(-c2cccc3c2Sc2ccccc2S3)oc(N2CCOCC2)c1 [KU55933] (first compound 0.1 µM, partner dose 1 µM) | 81.4% | 27.9% | 158% | 51.7% | 40.1% | 99.7% | 134% | 159% | 53.3% | 44.4% | 70.6% | 36.9% | 46.2% | 132% | 73.1% | 130%

Exported comma-delimited: entries from further up
Compound,cleaved PARP positive nuclei fraction (501Mel),cleaved PARP positive nuclei fraction (A101D),cleaved PARP positive nuclei fraction (A2058),cleaved PARP positive nuclei fraction (C32),cleaved PARP positive nuclei fraction (CBRC008),cleaved PARP positive nuclei fraction (CBRC014),cleaved PARP positive nuclei fraction (CBRC016),cleaved PARP positive nuclei fraction (CBRC017),cleaved PARP positive nuclei fraction (COLO792),cleaved PARP positive nuclei fraction (COLO800),cleaved PARP positive nuclei fraction (COLO829),cleaved PARP positive nuclei fraction (G361),cleaved PARP positive nuclei fraction (IPC-298),cleaved PARP positive nuclei fraction (IST-MEL1),cleaved PARP positive nuclei fraction (LB2518-MEL),cleaved PARP positive nuclei fraction (LOXIMVI)
"C[C@@H](Oc1cc(-c2cnn(C3CCNCC3)c2)cnc1N)c1c(Cl)ccc(F)c1Cl [Crizotinib] + O=C1NC(=O)/C(=C/c2ccc(-c3ccc(F)cc3O)o2)S1 [AS252424] (first compound 0.2 µM, partner dose 1 µM)",75.6%,13%,101%,187%,49.8%,83.6%,74%,89%,105%,74.3%,68.6%,62.4%,76%,119%,72.1%,111%
"CN1CCN(c2ccc3nc(-c4c(N)c5c(F)cccc5[nH]c4=O)[nH]c3c2)CC1 [Dovitinib] + O=c1cc(-c2cccc3c2Sc2ccccc2S3)oc(N2CCOCC2)c1 [KU55933] (first compound 0.1 µM, partner dose 1 µM)",81.4%,27.9%,158%,51.7%,40.1%,99.7%,134%,159%,53.3%,44.4%,70.6%,36.9%,46.2%,132%,73.1%,130%
